No constants are given. Whether binding was seen depends on the method and setting. Binding seen in cells or lysates may run through a third protein. Some entries that bind do so weakly or less than the wild type.
Target: transcription factor Sp1 (mouse (endogenous in 4T1, 168FARN and 67NR)) (UniProt O89090)
Assay: co-IP; nuclear extracts of 4T1, 168FARN and 67NR cells in RIPA buffer, pre-cleared with protein A/G agarose; IP overnight at 4°C with antibody against Brg-1 or Sp1 (rabbit IgG as control), protein A/G agarose, washed with RIPA buffer, immunoblot for Brg-1 or Sp1; also 4T1 cells treated with fenretinide for 24 hrs (IP with Sp1 antibody; interaction increased)

The chains behind the UniProt entries cited, without tags or fusion partners.
UniProt O89090: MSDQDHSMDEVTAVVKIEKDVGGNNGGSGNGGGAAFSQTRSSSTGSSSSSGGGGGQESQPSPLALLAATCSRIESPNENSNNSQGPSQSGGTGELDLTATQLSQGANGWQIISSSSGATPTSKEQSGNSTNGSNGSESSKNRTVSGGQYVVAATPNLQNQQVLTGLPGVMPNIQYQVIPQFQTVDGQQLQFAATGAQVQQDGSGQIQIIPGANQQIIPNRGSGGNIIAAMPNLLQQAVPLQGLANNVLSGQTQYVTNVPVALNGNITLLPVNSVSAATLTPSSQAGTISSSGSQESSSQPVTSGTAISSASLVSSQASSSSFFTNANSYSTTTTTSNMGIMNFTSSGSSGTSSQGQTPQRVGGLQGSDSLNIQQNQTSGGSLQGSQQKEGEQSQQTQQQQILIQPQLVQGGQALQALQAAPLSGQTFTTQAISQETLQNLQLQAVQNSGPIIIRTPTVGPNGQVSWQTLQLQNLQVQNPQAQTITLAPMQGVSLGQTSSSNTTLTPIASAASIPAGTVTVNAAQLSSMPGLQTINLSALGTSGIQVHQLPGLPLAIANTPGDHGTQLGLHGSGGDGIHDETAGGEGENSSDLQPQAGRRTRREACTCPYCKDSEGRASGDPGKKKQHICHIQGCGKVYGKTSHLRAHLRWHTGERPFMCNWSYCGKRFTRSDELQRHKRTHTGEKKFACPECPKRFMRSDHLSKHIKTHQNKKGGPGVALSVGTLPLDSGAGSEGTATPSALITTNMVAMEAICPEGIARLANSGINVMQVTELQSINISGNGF
UniProt Q3TKT4: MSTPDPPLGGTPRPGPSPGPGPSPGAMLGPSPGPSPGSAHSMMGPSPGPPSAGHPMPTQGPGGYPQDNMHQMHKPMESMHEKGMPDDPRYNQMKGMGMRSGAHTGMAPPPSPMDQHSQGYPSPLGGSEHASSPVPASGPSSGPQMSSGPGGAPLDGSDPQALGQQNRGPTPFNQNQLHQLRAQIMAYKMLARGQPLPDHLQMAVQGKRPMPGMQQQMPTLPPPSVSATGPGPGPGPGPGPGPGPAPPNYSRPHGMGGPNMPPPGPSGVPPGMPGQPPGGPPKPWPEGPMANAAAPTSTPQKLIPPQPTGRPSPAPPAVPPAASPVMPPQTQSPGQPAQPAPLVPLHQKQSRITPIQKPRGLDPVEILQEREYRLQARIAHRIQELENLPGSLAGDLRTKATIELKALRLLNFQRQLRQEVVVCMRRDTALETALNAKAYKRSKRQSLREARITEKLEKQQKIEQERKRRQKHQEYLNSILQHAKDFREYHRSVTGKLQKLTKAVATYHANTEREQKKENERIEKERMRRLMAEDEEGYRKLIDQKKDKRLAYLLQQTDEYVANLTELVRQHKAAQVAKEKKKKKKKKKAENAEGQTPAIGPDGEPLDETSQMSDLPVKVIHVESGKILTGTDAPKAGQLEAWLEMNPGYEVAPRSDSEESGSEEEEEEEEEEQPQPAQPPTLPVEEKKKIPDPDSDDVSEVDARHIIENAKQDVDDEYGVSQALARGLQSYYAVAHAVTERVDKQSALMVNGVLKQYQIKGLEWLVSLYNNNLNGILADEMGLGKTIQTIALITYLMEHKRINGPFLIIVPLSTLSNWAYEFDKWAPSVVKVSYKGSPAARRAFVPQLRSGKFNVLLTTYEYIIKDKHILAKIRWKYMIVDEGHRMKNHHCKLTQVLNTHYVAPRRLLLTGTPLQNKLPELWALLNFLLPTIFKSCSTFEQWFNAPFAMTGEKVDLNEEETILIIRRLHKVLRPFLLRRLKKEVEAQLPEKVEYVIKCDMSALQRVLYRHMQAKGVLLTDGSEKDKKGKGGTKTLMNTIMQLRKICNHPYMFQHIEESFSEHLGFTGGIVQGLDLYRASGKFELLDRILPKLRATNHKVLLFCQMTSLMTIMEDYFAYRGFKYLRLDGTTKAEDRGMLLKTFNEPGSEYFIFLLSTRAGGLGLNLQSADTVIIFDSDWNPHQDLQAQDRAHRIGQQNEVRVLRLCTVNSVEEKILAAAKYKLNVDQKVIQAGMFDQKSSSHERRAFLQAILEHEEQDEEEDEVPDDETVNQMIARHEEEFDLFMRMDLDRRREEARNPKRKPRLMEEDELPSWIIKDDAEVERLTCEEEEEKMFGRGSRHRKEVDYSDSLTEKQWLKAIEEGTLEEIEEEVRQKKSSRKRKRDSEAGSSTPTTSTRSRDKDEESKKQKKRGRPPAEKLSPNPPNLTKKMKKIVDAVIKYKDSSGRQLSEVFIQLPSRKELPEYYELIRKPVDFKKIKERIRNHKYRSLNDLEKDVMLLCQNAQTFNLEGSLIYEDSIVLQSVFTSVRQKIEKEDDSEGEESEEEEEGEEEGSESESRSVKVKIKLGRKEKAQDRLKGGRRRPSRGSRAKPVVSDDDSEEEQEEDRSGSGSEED

In the case of “Brg-1 (Brahma-related gene-1), ATPase subunit of the SWI/SNF chromatin remodeling complex (from UniProt Q3TKT4 1-1613)”, the binding is reported as “binds”.
